# Experimental data as given in PubChem BioAssay AID1347423 (Functional Genomics Laboratory (NCATS/FGL), 2020).
# About 210 (0.4%) of roughly 52,000 sequences were called active.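 How the source made its calls: active means gene whose silencing raises cell survival under the drug, median off-target-corrected z-score across its silencing RNAs 2 or more; inactive means the rest.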 The list shows a part of the results.
# Test: Resistance to Poly (ADP-Ribose) Polymerase inhibitor: Gene Identification via Genome-wide siRNA Screen
# Settings: mouse BRCA2 R2336H ES cells, olaparib, CellTiter-Glo viability; active compounds read high
# In short: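 Mouse BRCA2 R2336H ES cells were reverse-transfected with siRNA (20 nM final), treated at 48 h with 500 nM olaparib, and read by CellTiter-Glo after 72 h. Scores: MAD-based z per siRNA, median per gene, seed off-target correction.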
row,Sequence,z-score
1,GGCCAUUAAAAACACGGUATT against A130022J15Rik,inactive: -1.07
2,GGUGCUGGAGAUGAAGAACTT against C130038G02Rik,inactive: -2.16
3,GGACUCAACUGGACAGCCUTT against E330037G11Rik,inactive: -0.741
4,GGCAAUCAGAUCAUUUACATT against BC047207,inactive: 0.581
5,GGCCUUUCUAAAUUCAACATT against Top3a,inactive: 2.67
6,GACGCAGAAAUGGUUUAAGTT against Hod,inactive: 0.425
7,GGUAGCAAUCAUUUUCCUUTT against 4933415L06Rik,inactive: 0.184
8,GGACUGACUGGAUUUUUCCTT against Adamts12,inactive: -0.264
9,GGUGAACGAACAUUGGUAUTT against Sh3d4,inactive: -0.736
10,CGAGGAAUAACAACAGCCUTT against Itk,inactive: -1.55
11,GGCUGAUUCAUUUGGGAACTT against Olfr9,inactive: -1.56
12,GGGAGCAACAAUGUAAACATT against Pex13,inactive: -0.0363
13,GCUGUUAGCCUAGUUUGUUTT against Gm1568,inactive: 0.253
14,GGUAAUGUCCUUAUCAUCUTT against Olfr211,inactive: -0.139
15,GGUACACAUGACAUUCAUGTT against Gcdh,inactive: 0.613
16,GCUCGUUCGCCUAGAAUUGTT against Mycbp,inactive: 1.07
17,GGGUUUUUGGGAGAGCCAATT against Tbxas1,inactive: -2.95
18,GGACAAGUUAGAGGAAUUUTT against Phf13,inactive: -0.905
19,GCUUUGUUGCGUCAACAAATT against Sdccag8,inactive: 1.03
20,GGUUACGAAUUACCUAGACTT against Plat,inactive: -0.275
21,GGAGAUUGAUUUCAAUGCCTT against Olfr665,inactive: -0.0692
22,CCUCCUCUCCUAAAUGCCUTT against 1700034O15Rik,inactive: 0.0352
23,GGACCUCACAAGUGUUUAUTT against Pola1,inactive: -0.152

row,Sequence,z-score
1,GCCUUAGGUUCGGAUGACCTT against Rorb,inactive: 1.14
2,GGUGAUUUGUAAGACAGCUTT against Dpyd,inactive: 1.32
3,GCGGUAACAUCACCAAAAUTT against Gltp,inactive: -0.645
4,CCGUGGUCUACUCCAUCAUTT against Slc6a19,inactive: -1.72
5,GCGAAAGAUGGAAGACGACTT against Gtf3c1,inactive: -1.88
6,GGAAAGUUAAUGCACAUUUTT against Hmg20a,inactive: -1.08
7,CCAGUUCCGGUCAGAUUAUTT against Gnal,inactive: -1.1
8,GGUUUCGUACCAUGAAACATT against Epim,inactive: -0.711
9,GCAAAGGUUCUAGUUGAUATT against Cct2,inactive: -2.51
10,CGGCACCAGUGUUCUAUUGTT against Ddi2,inactive: -0.359
11,GCUCAACGCAUUUUUCCAUTT against Neurod2,inactive: 1.21
12,CGUAGAGCUCAGAGAAUUCTT against D11Lgp2e,inactive: 1.63
13,GGAUUCUUUCCCUUUGUGCTT against BC038613,inactive: 0.459
14,GGACUGGAAGAAUUUUUUGTT against Mrpl47,inactive: 1.99
15,GCUCAUGUAUGUGAAUUUGTT against Ptx3,inactive: 0.366
16,GGUGACUCUGAUUCUCAUATT against Slc22a13,inactive: 0.608
17,GGCUUAGAAUCAGACUUGUTT against Tor3a,inactive: 1.33
18,GGCUAUCAGUUUCAAUGAGTT against Olfr663,inactive: 0.0513
19,GGUGAGGUAGGUUACUCAGTT against Reps1,inactive: -2.75
20,GGCCUACGACAAAUCCAAATT against Csrp2,inactive: 2.51
21,GGCAGCUGUUCAUCAUUACTT against 1110001K21Rik,inactive: 0.522
22,GGAACGGCUGAUCACUCUGTT against Otop1,inactive: 0.783
23,GGCCUACUACAUUUUGUCATT against 2700050L05Rik,inactive: 0.924

# Some values from above:
# In z-score, GGUGAUUUGUAAGACAGCUTT against Dpyd shows inactive: 1.32
# In z-score, GGUGAACGAACAUUGGUAUTT against Sh3d4 shows inactive: -0.736

# Following part.

row,Sequence,z-score
1,GGUAACACAGAAGAAAUCUTT against Hig1,inactive: 2.62
2,CCUAAAGACGUGCAAUAUGTT against Zfp287,inactive: 1.53
3,GGAAUGUUACCCUUCAACUTT against Slc25a13,inactive: 0.238
4,GCAGAUUGAUUAUACGGUATT against 2310036D22Rik,inactive: -1.65
5,GCGAGCAUGAAGUUAGUAATT against C230029F24Rik,inactive: -0.429
6,CCUGUGAAAGAUGCUUAUATT against Capn7,inactive: 2.01
7,GGCACGAUACUUAUUUGAATT against Nudt13,inactive: -0.941
8,GCUAUUGACCAGGUUAUAATT against Pdhb,inactive: 0.381
9,CCAGAUGGUCUAUAUCGUATT against Plscr4,inactive: 0.973
10,GCCUCCAUAAUUGUCAAUATT against Rbks,inactive: -0.061
11,GGCUUUGGAUGUUUUUGUATT against Fgf10,inactive: -0.728
12,GGGAGUCCGUUCAAACUCGTT against Pttg1,inactive: 1.28
13,GGUGGAAGUUUUCAGUGGCTT against Axud1,inactive: 1.03
14,GGAGUGUGCGGAACAUUCUTT against Slc17a5,inactive: 2.13
15,GGCCAUUUCCAUCAGAGGATT against Vav2,inactive: -0.871
16,GGACUGUUGCAUGACUCUCTT against Evc,inactive: 0.352
17,GGAAGUGCUACUUUCUGGGTT against 2810417M05Rik,inactive: 1.37
18,GGUUCAUAAUGCCUUCAAGTT against Olfr1449,inactive: 0.869
19,CCUACUCUCUAGAAAAGGATT against Olfr1006,inactive: -0.881
20,GGAGUUGUUCAGGUCCCGATT against Crlf1,inactive: -0.815
21,GGCGUGCUUUCUACCAAGGTT against Slco1a5,inactive: -0.85
